From the supplement of paper PMC8728848
The list shows a part of the results.

How the values were obtained:
Assay in all cases: glycan array binding signal (z-score within array); higher = stronger binding
Conditions in all cases: glycan notation: IUPAC condensed, linker removed
[1] = target: Fuc(a1-2)[GalNAc(a1-3)]Gal(b1-3)GlcNAc(b1-3)GalNAc
Summary of the method: (§1)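 Columns mapping to the same glycan were averaged after glycan names were converted to IUPAC-condensed notation. The data come from 3228 arrays in the Consortium for Functional Glycomics database, limited to those with an available protein sequence. Binding is reported as a within-array Z-score averaged across arrays of one protein sequence and across linkers.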

[2] = target: Fuc(a1-2)[GalNAc(a1-3)]Gal(b1-3)GlcNAc(b1-6)GalNAc
Summary of the method: as §1

[3] = target: Fuc(a1-2)[GalNAc(a1-3)]Gal(b1-4)Glc
Summary of the method: as §1

[4] = target: Fuc(a1-2)[GalNAc(a1-3)]Gal(b1-4)GlcNAc
Summary of the method: as §1

[5] = target: Fuc(a1-2)[GalNAc(a1-3)]Gal(b1-4)GlcNAc(b1-2)Man
Summary of the method: as §1

[6] = target: Fuc(a1-2)[GalNAc(a1-3)]Gal(b1-4)GlcNAc(b1-2)Man(a1-3)[Fuc(a1-2)[GalNAc(a1-3)]Gal(b1-4)GlcNAc(b1-2)Man(a1-6)]Man(b1-4)GlcNAc(b1-4)GlcNAc
Summary of the method: as §1

[7] = target: Fuc(a1-2)[GalNAc(a1-3)]Gal(b1-4)GlcNAc(b1-2)Man(a1-3)[Fuc(a1-2)[GalNAc(a1-3)]Gal(b1-4)GlcNAc(b1-2)Man(a1-6)]Man(b1-4)GlcNAc(b1-4)[Fuc(a1-6)]GlcNAc
Summary of the method: as §1

[8] = target: Fuc(a1-2)[GalNAc(a1-3)]Gal(b1-4)GlcNAc(b1-3)Gal(b1-4)GlcNAc
Summary of the method: as §1

[9] = target: Fuc(a1-2)[GalNAc(a1-3)]Gal(b1-4)GlcNAc(b1-3)Gal(b1-4)GlcNAc(b1-3)Gal(b1-4)GlcNAc
Summary of the method: as §1

[10] = target: Fuc(a1-2)[GalNAc(a1-3)]Gal(b1-4)GlcNAc(b1-3)GalNAc
Summary of the method: as §1

[11] = target: Fuc(a1-2)[GalNAc(a1-3)]Gal(b1-4)GlcNAc(b1-3)[Fuc(a1-2)[GalNAc(a1-3)]Gal(b1-4)GlcNAc(b1-6)]GalNAc
Summary of the method: as §1

[12] = target: Fuc(a1-2)[GalNAc(a1-3)]Gal(b1-4)GlcNAc(b1-6)GalNAc
Summary of the method: as §1

[13] = target: Fuc(a1-2)[GalNAc(a1-3)]Gal(b1-4)[Fuc(a1-3)]GlcNAc
Summary of the method: as §1

[14] = target: Fuc(a1-2)[GalNAc(a1-3)]Gal(b1-4)[Fuc(a1-3)]GlcNAc(b1-3)GalNAc
Summary of the method: as §1

[15] = target: Fuc(a1-2)[GalNAc(a1-4)]Gal(b1-4)GlcNAc
Summary of the method: as §1

[16] = target: Fuc(a1-2)[GalNAc(b1-3)]Gal
Summary of the method: as §1

[17] = target: Fuc(a1-3)GlcNAc
Summary of the method: as §1

[18] = target: Fuc(a1-3)[Gal(b1-4)]Glc6S
Summary of the method: as §1

[19] = target: Fuc(a1-3)[Gal(b1-4)]GlcNAc
Summary of the method: as §1

[20] = target: Fuc(a1-3)[Gal(b1-4)]GlcNAc(b1-2)Man
Summary of the method: as §1

[21] = target: Fuc(a1-3)[Gal(b1-4)]GlcNAc(b1-2)Man(a1-3)[Fuc(a1-3)[Gal(b1-4)]GlcNAc(b1-2)Man(a1-6)]Man(b1-4)GlcNAc(b1-4)GlcNAc
Summary of the method: as §1

[22] = target: Fuc(a1-3)[Gal(b1-4)]GlcNAc(b1-2)Man(a1-3)[Fuc(a1-3)[Gal(b1-4)]GlcNAc(b1-2)Man(a1-6)]Man(b1-4)GlcNAc(b1-4)[Fuc(a1-6)]GlcNAc
Summary of the method: as §1

[23] = target: Fuc(a1-3)[Gal(b1-4)]GlcNAc(b1-3)Gal(b1-3)[Fuc(a1-4)]GlcNAc
Summary of the method: as §1

[24] = target: Fuc(a1-3)[Gal(b1-4)]GlcNAc(b1-3)Gal(b1-4)[Fuc(a1-3)]GlcNAc
Summary of the method: as §1

[25] = target: Fuc(a1-3)[Gal(b1-4)]GlcNAc(b1-3)Gal(b1-4)[Fuc(a1-3)]GlcNAc(b1-3)Gal(b1-4)[Fuc(a1-3)]GlcNAc
Summary of the method: as §1

[26] = target: Fuc(a1-3)[Gal(b1-4)]GlcNAc(b1-3)GalNAc
Summary of the method: as §1

[27] = target: Fuc(a1-3)[Gal(b1-4)]GlcNAc(b1-6)GalNAc
Summary of the method: as §1

[28] = target: Fuc(a1-3)[Gal(b1-4)]GlcNAc(b1-6)[Gal(b1-3)GlcNAc(b1-3)]Gal(b1-4)Glc
Summary of the method: as §1

[29] = target: Fuc(a1-3)[Gal(b1-4)]GlcNAc6S
Summary of the method: as §1

[30] = target: Fuc(a1-3)[Gal3S(b1-4)]Glc
Summary of the method: as §1

[31] = target: Fuc(a1-3)[Gal3S(b1-4)]GlcNAc
Summary of the method: as §1

[32] = target: Fuc(a1-3)[Gal3S(b1-4)]GlcNAc6S
Summary of the method: as §1

[33] = target: Fuc(a1-3)[GalNAc(b1-4)]GlcNAc
Summary of the method: as §1

[34] = target: Fuc(a1-3)[GalNAc(b1-4)]GlcNAc6S
Summary of the method: as §1

[35] = target: Fuc(a1-4)GlcNAc
Summary of the method: as §1

[36] = target: Fuc(b1-3)GlcNAc
Summary of the method: as §1

[37] = target: Gal(a1-2)Gal
Summary of the method: as §1

[38] = target: Gal(a1-3)Gal
Summary of the method: as §1

[39] = target: Gal(a1-3)Gal(b1-3)GlcNAc
Summary of the method: as §1

[40] = target: Gal(a1-3)Gal(b1-3)GlcNAc(b1-2)Man
Summary of the method: as §1

[41] = target: Gal(a1-3)Gal(b1-3)GlcNAc(b1-2)Man(a1-3)[Gal(a1-3)Gal(b1-3)GlcNAc(b1-2)Man(a1-6)]Man(b1-4)GlcNAc(b1-4)GlcNAc
Summary of the method: as §1

[42] = target: Gal(a1-3)Gal(b1-3)GlcNAc(b1-3)GalNAc
Summary of the method: as §1

[43] = target: Gal(a1-3)Gal(b1-3)GlcNAc(b1-6)GalNAc
Summary of the method: as §1

[44] = target: Gal(a1-3)Gal(b1-3)[Fuc(a1-4)]GlcNAc(b1-2)Man(a1-3)[Gal(a1-3)Gal(b1-3)[Fuc(a1-4)]GlcNAc(b1-2)Man(a1-6)]Man(b1-4)GlcNAc(b1-4)GlcNAc
Summary of the method: as §1

[45] = target: Gal(a1-3)Gal(b1-4)Glc
Summary of the method: as §1

B1: Epa8 (Candida glabrata) (protein)
chain: MGSSHHHHHHSSGLVPRGSHMASSRALSDYPLGCSPLLGTKLTPGLSMELYEYPLDNHGIGPHCWDPAYLNPEYPRTGFESHKLIGTAQNVMSLNFEHRTQDCHVEFSNLPASFNFPDQITLTNFTMLLYGYFKPKESGRYRFHMEADDLLLMNLGAGNAFDCCAHEATRNNLGDYIAYDIWAGTRKDVEVFLEKEVFYPLRLFFNNRDGRAALDFSYYLNGATEPGTDIPELLFSLPDGESCPAYI
glycan array binding signal (z-score) [1]: 0.525 | glycan array binding signal (z-score) [2]: -0.174 | glycan array binding signal (z-score) [3]: -0.151 | glycan array binding signal (z-score) [4]: -0.237 | glycan array binding signal (z-score) [5]: -0.002 | glycan array binding signal (z-score) [6]: 1.72 | glycan array binding signal (z-score) [7]: 0.443 | glycan array binding signal (z-score) [8]: -0.51 | glycan array binding signal (z-score) [9]: 0.493 | glycan array binding signal (z-score) [10]: -0.515 | glycan array binding signal (z-score) [11]: 0.36 | glycan array binding signal (z-score) [12]: -0.273 | glycan array binding signal (z-score) [13]: -0.536 | glycan array binding signal (z-score) [14]: 3.16 | glycan array binding signal (z-score) [15]: -0.072 | glycan array binding signal (z-score) [16]: 0.229 | glycan array binding signal (z-score) [17]: 0.171 | glycan array binding signal (z-score) [18]: 0.622 | glycan array binding signal (z-score) [19]: -0.523 | glycan array binding signal (z-score) [20]: -0.309 | glycan array binding signal (z-score) [21]: -0.093 | glycan array binding signal (z-score) [22]: 0.585 | glycan array binding signal (z-score) [23]: -0.552 | glycan array binding signal (z-score) [24]: -0.126 | glycan array binding signal (z-score) [25]: -0.784 | glycan array binding signal (z-score) [26]: 0.404 | glycan array binding signal (z-score) [27]: 1.23 | glycan array binding signal (z-score) [28]: -0.688 | glycan array binding signal (z-score) [29]: 0.492 | glycan array binding signal (z-score) [30]: -0.205 | glycan array binding signal (z-score) [31]: 0.094 | glycan array binding signal (z-score) [32]: 0.484 | glycan array binding signal (z-score) [33]: -0.278 | glycan array binding signal (z-score) [34]: -0.401 | glycan array binding signal (z-score) [35]: -0.22 | glycan array binding signal (z-score) [36]: -0.121 | glycan array binding signal (z-score) [37]: -0.54 | glycan array binding signal (z-score) [38]: 1.5 | glycan array binding signal (z-score) [39]: 0.403 | glycan array binding signal (z-score) [40]: 0.558 | glycan array binding signal (z-score) [41]: 1.03 | glycan array binding signal (z-score) [42]: -0.12 | glycan array binding signal (z-score) [43]: 0.137 | glycan array binding signal (z-score) [44]: 0.112 | glycan array binding signal (z-score) [45]: 0.32
